What was measured:
[1] = voltage-current-luminance characteristic of organic EL element with the material as electron transport layer
Description: Produced were an organic electroluminescent element of the element configuration. shown in FIG. 1 (Element (A)) and an organic electroluminescent element having an element configuration exactly same as that shown in FIG. 1 except that an electron inlection layer is provided between the cathode and the electron transport layer (element (B)). The film thickness of each layer is as follows.
Element (A): anode/hole injection layer/hole transport layer/light emitting layer/electron transport layer/ cathode
Element (B): anode/hole injection layer/hole transport layer/light emitting layer/electron transport layer/electron injection layer/cathode
Electron injection layer: LiF (0.5 nm)
Liquid materials for forming an electron transport layer each were prepared by dissolving a metal complex shown in Table 2 at a concentration of 7.5 g/L in a solvent shown in Table 2.
In order to make elements including a metal alkoxide added for the purpose of achieving a further driving voltage and a longer lifetime, also prepared were liquid materials for forming an electron transport layer including a metal alkoxide as a dopant. The liquid materials for forming an electron transport layer including a metal alkoxide added each were prepared by adding a metal alkoxide solution to the solution of a metal complex. The solution of a metal complex was prepared by dissolving a metal complex shown in Table 2 at a concentration of 7.5 g/L in a solvent shown in Table 2. The metal alkoxide solution was, in the case of lithium-n-butoxide (LiOnBu), prepared by dissolving a reagent manufactured by Kojundo hemical Lab. Next, the 7.5 g/L metal complex solution and the 5 g/L metal alkoxide solution were mixed such that the content of the dopant (metal alkoxide) reached 10% by weight with respect to the metal complex, and then the mixed solution was subjected to film formation.
A comparative liquid material for forming an electron transport layer was prepared in the same manner as described above except that LiBPP was used instead of the metal complex.
For the voltage-current-luminance characteristic of the organic EL element made, a voltage from 0 V to 10 V was applied, and the current value was measured every 0.1 V using a DC voltage current source/monitor (6241A and 7351A manufactured by ADCMT).
In (2) Production of Organic Electroluminescent Element described above, using L101-Cs as the metal complex of the electron transporting material and. LiOBu as the dopant, an element including no electron injection layer (A) or an element including an electron injection layer (B) was produced. The physical property, values of driving voltage (V), current efficiency (ηc), and relative lifetime of the elements given were also shown in Table 2. The presence or absence of the electron injection. layer was also described in Table 2.
An element was produced in the same manner as in Example 1 except that the liquid material for forming an electron transport layer was replaced by one shown in Table 2 in Example 1. The physical property values of driving voltage (V), current efficiency (ηc), and relative lifetime of the elements given were also shown in Table 2.

[2] = lifetime of organic EL element (luminance half-life, constant current driving); conditions: 25° C., relative to Example 3 with electron injection layer (100)
Experimental: The lifetime of the organic EL element made was measured using a lifetime evaluation measuring apparatus (manufactured by Kyushu Keisokki Co., Ltd.). The element was placed in the thermostatic chamber at a constant temperature of 25° C., and the changes in the luminance voltage associated with constant current driving were measured. In this case, the acceleration factor for evaluation of the element was 1.758. Comparison was made based on the values of half-life, at which the luminance dropped to the half of the initial luminance, obtained in accordance with the driving time converted in terms of 100 cd/m^2.
wherein L0: initial luminance [cd/m^2], L: converted luminance [cd/m^2], T1: measured luminance half-life, and T: converted luminance half-life
The relative lifetime was based on the lifetime of Example 3 [material complex (L301-Cs)+dopant (LiOBu)+electron injection layer](100).

[3] = element (A), no electron injection layer, dopant LiOBu 10% by weight, solvent as in Table 2
[4] = element (B), LiF electron injection layer, dopant LiOBu 10% by weight, solvent as in Table 2
[5] = element (A), no electron injection layer, dopant LiOBu
[6] = element (B), LiF electron injection layer, dopant LiOBu

| Compound | Driving voltage [1, 3] | Driving voltage [1, 4] | Relative lifetime [2, 5] | Relative lifetime [2, 6] | Driving voltage ([1]; element (A), no electron injection layer, no dopant, 1-Heptanol) | Driving voltage ([1]; element (B), LiF electron injection layer, no dopant, 1-Heptanol) | Relative lifetime ([2]; element (A), no electron injection layer, no dopant) | Relative lifetime ([2]; element (B), LiF electron injection layer, no dopant) |
| --- | --- | --- | --- | --- | --- | --- | --- | --- |
| Oc1cccc2c1nc(-c1ccccc1)n2-c1cccc(-c2ccc3ccc4cccnc4c3n2)c1 [L101-Cs] | 4.7 V | 4.6 V | 72 | 74 | – | – | – | – |
| Oc1cccc2c1nc(-c1ccccc1)n2-c1cccc(-c2ccc3ccc4cccnc4c3n2)c1 [L101-Rb] | 5 V | 5 V | 74 | 73 | – | – | – | – |
| Oc1cccc2oc3cc(-c4ccc5ccc6cccnc6c5n4)cnc3c12 [L301-Cs] | 4.4 V | 4.3 V | 90 | 100 | – | – | – | – |
| O=P(c1ccccc1)(c1ccc2ccc3cccnc3c2n1)c1ccc(O)c2c1oc1cccnc12 (stereo not shown) [L302-Cs] | 5.3 V | 4.9 V | 45 | 80 | – | – | – | – |
| O=P(c1ccccc1)(c1ccc2ccc3cccnc3c2n1)c1ccc(O)c2c1oc1cccnc12 (stereo not shown) [L302-Li] | 6.2 V | 6 V | 11 | 11 | – | – | – | – |
| O=P(c1ccccc1)(c1ccccc1)c1ccc2ccc3ccc(-c4ccc(O)c5c4oc4cccnc45)nc3c2n1 [L303-Cs] | – | – | – | – | 6.9 V | 5.7 V | 28 | 18 |
| O=P(c1ccccc1)(c1ccccc1)c1ccc2ccc3ccc(-c4ccc(O)c5c4oc4cccnc45)nc3c2n1 [L303-Rb] | 4.5 V | 4.5 V | 16 | 16 | – | – | – | – |

— patent US20220344599A1, “METAL COMPLEX AND ELECTRON TRANSPORTING MATERIAL COMPRISING SAME” (DYDEN CORPORATION, priority 2019, published 2022)
